Data: PubChem BioAssay AID2685 (National Center for Advancing Translational Sciences (NCATS), 2010)
Some of the results follow. These are further read-outs of the screen, such as a control signal, another cell line or another target. No call is given for them. The list favours compounds with an active or inconclusive main result. Potencies come from curve fits of mixed quality, noted in brackets.

Experiment: qHTS Assay for Lipid Storage Modulators in Drosophila S3 Cells;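 as to cell number change: cells counted by Cell Tracker Red CMTPX staining in the red channel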
Conditions: BODIPY lipid droplet fluorescence, 18-24 h; for cell number change: measured here: cell count max response, cells fed with added oleic acid
Procedure, shortened: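 Drosophila S3 cells got compounds at several concentrations plus oleic acid (400 uM solution). Laser-scanning cytometry with 488 nm excitation read lipid droplets at 500-530 nm and cells at 575-640 nm. Percent activity was relative to 20 uM Triacsin C.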

[1] = measured here: lipid fluorescence (Fed channel) AC50, cells fed with added oleic acid
[2] = measured here: cell number channel AC50, cells fed with added oleic acid

SMILES	cell number change [%]	AC50 [1]	AC50 [2]
O=C(COc1ccc2c3c(c(=O)oc2c1)CCCC3)N1CCN(c2ccccc2)CC1	-12.1	0.651 µM [falling, partial curve, poor fit]	
CCOc1ccccc1C(=O)N1CCN=C1SC	0.237		
COc1cc(S(=O)(=O)N2CCOCC2)ccc1NC(=O)CSc1nnc(N)s1	2.65	8.2 µM [rising, partial curve, poor fit]	
COc1ccc(OC)c(/C=C/C(=O)c2ccc3c(c2)OCCO3)c1	-8.62	32.6 µM [falling, single point]	
O=[N+]([O-])c1ccc(OCCOc2ccccc2/C=N/n2cnnc2)cc1	-0.368		
Cn1c(-c2sc3ccccc3c2Cl)n[nH]c1=S	57.4	1.46 µM [rising, full curve, poor fit]	16.4 µM [rising, partial curve]
CCc1nn2c(N3CCOCC3)cc(C)nc2c1-c1ccc(F)cc1		4.61 µM [rising, single point]	0.58 µM [rising, full curve, poor fit]
Cc1cc(C)nc(NS(=O)(=O)c2ccc(NC(=O)CN3C(=O)C4CC=CCC4C3=O)cc2)n1 (configuration not stated)	12.6		0.651 µM [falling, full curve]
O=C(COc1ccc(Cl)cc1)NCCNC(=O)c1ccccn1	5.71		
O=C(/C=C\c1cccs1)N1CCN(Cc2ccc3c(c2)OCO3)CC1	6.76		0.00411 µM [rising, full curve, poor fit]
O=C1/C(=C/Nc2ccc3c(c2)OCO3)CCc2ccccc21	18		
COc1ccc(-c2csc3ncnc(N4CCN(S(=O)(=O)c5ccccc5C#N)CC4)c23)cc1		5.17 µM [falling, partial curve]	
COc1ccc(CN(C)C(=O)c2cccc(Oc3ccccc3)c2)c(OC)c1OC	-2.08	25.9 µM [rising, single point]	
O=C(Nc1ccc2oc(-c3ccc(Cl)c(Cl)c3)nc2c1)c1ncn[nH]1			0.411 µM [rising, full curve]
O=C(NCc1ccc2c(c1)OCO2)c1ccc2c(c1)C(=O)N(CC1CCCO1)C2=O (configuration not stated)	-6.88	0.651 µM [rising, single point]	
O=C(CSc1ccc2ccccc2c1)Nc1ccncc1	-25.2	29.1 µM [falling, single point]	
CCOC(=O)c1sc(NC(=O)c2cccnc2)nc1C	46.2		7.31 µM [rising, partial curve, poor fit]
O=C(COC(=O)c1ccccc1Br)NCCC1=CCCCC1	42.6	0.146 µM [falling, full curve, poor fit]	14.6 µM [rising, single point]
CCc1c(C2(O)CCCCC2)[nH]c2ncccc12	7.24	0.103 µM [falling, full curve, poor fit]	
O=C(CSc1ccc(Cl)cc1)Nc1cccc(-c2nc3ccccc3[nH]2)c1	-42.9	9.2 µM [falling, partial curve]	5.8 µM [falling, partial curve]
CN1C(=S)SC(C)(NO)C1(C)C (configuration not stated)		29.1 µM [falling, single point]	

SMILES	cell number change [%]	AC50 [1]	AC50 [2]
CCOC(=O)c1nc(C)sc1-c1ccnn1S(=O)(=O)c1ccccc1C(F)(F)F	19.3	2.06 µM [rising, full curve, poor fit]	
O=C(Nc1cc(Cl)cc(Cl)c1)C1CCC(=O)N1Cc1ccccc1Cl (configuration not stated)	-137	29.1 µM [falling, single point]	18.4 µM [falling, partial curve]
COc1ccccc1OCC(=O)NCC(C)NC(=O)COc1ccccc1OC (configuration not stated)	22.8		1.03 µM [rising, full curve, poor fit]
S=C(NCC1CCCCC1)Nc1ccc(Oc2ccccc2)cc1	8.19	29.1 µM [falling, single point]	
Cc1ncc(CO)c2c1Oc1nc(-c3ccccc3)nc(SCC(=O)Nc3cccc(O)c3)c1C2	88.7	6.51 µM [falling, full curve]	
CCOc1c(Cl)cc(CNCC(C)C)cc1OC	-108	23.1 µM [falling, single point]	5.8 µM [falling, full curve]
CCOc1ccc(N/C(=C(/C(Cl)=C(Cl)Cl)[N+](=O)[O-])n2cncn2)cc1	127		29.1 µM [rising, single point]
CCN(CC)S(=O)(=O)c1ccc(S(=O)(=O)Nc2ccc3c(c2)oc2ccccc23)cc1	8.2	20.6 µM [rising, single point]	
N#Cc1ccccc1NC(=O)CSc1nnc(-c2ccccc2)n1-c1ccccc1	51.4	29.1 µM [rising, partial curve, poor fit]	0.0651 µM [rising, full curve, poor fit]
Cc1ccc(/C=N/NC(=O)c2cccs2)s1	-14.2	2.91 µM [rising, partial curve]	
Cc1cc(F)ccc1S(=O)(=O)N1CCCOC1CNC(=O)C(=O)NCc1ccncc1 (configuration not stated)	3.47		
c1ccc(CNC23CC4CC(CC(C4)C2)C3)nc1	-32.6		
O=[N+]([O-])c1ccc2[nH]cc(S(=O)(=O)N3CCN(c4cccc(Cl)c4)CC3)c2c1	26	32.6 µM [falling, single point]	
Cc1nn(C)c(Oc2ccccc2)c1CCNS(=O)(=O)c1ccccc1	39.1		16.4 µM [rising, single point]
C(=N\N1CCN(Cc2cccc3ccccc23)CC1)/c1ccco1	-0.7		
C/C(=N\NC(=O)c1cc(C2CC2)nc2ccccc12)c1ccc(O)cc1O	8.33		
COc1ccc(Cl)cc1NC(=O)C1CC(c2c(F)cccc2Cl)=NO1 (configuration not stated)	-3.16	29.1 µM [falling, single point]	
O=C(CSC1=NS(=O)(=O)c2cc(F)ccc2N1)Nc1ccc(F)cc1	-14.5		
CCN(CC)CCN1C(=O)C(=O)/C(=C(/O)c2c(C)[nH]c(C(=O)OC)c2C)C1c1ccc(OC)cc1 (configuration not stated)	4.1		
CC(NS(=O)(=O)OCC(Cl)(Cl)Cl)c1ccc(C(C)(C)C)cc1 (configuration not stated)	-40.8		16.4 µM [falling, single point]
Cc1cccc(NC(=O)c2ccc(OCC3CCCO3)cc2)c1C (configuration not stated)	-15.2	29.1 µM [falling, single point]	

SMILES	cell number change [%]	AC50 [1]	AC50 [2]
Cc1[nH][nH]c(=O)c1C(c1ccc(-c2ccc(Cl)cc2)o1)c1c(C)[nH][nH]c1=O	9.88	11.6 µM [rising, partial curve]	
CN(c1ccccc1)S(=O)(=O)c1ccc(C(=O)NCCc2ccccc2)cc1	13.9	29.1 µM [falling, single point]	
CNC(=O)/C=C1\NC(C)(C)Cc2c1ccc1ccccc21	-8.62	23.1 µM [rising, single point]	
CCCN(CC(=O)Nc1ccccc1C)C(=O)c1ccc(S(=O)(=O)N2CCCCCC2)cc1	8.21		7.31 µM [rising, partial curve, poor fit]
CN(Cc1c(C(=O)N/N=C/c2cccc(Cl)c2)nnn1-c1nonc1N)c1ccccc1	-3.05	29.1 µM [rising, single point]	
CCCN(CCC)CC(O)Cn1cc(/C=C/C(=O)c2cccs2)c2ccccc21 (configuration not stated)	-17.7	20.6 µM [falling, single point]	
CC(/C=N/Nc1ccc2nncn2n1)=C\c1ccccc1	12	0.116 µM [rising, full curve, poor fit]	0.146 µM [rising, full curve, poor fit]
CCc1nc(NCCc2ccccn2)c2nnn(Cc3ccccc3F)c2n1	-29.6	29.1 µM [falling, single point]	
C/C(=N\N1CCN(C)CC1)c1ccc(OC(F)F)cc1	-38.1	1.03 µM [falling, full curve]	1.3 µM [falling, full curve, poor fit]
COC(=O)c1ccccc1NCc1cc(=O)oc2cc(O)c(O)cc12	118	8.2 µM [rising, partial curve]	29.1 µM [rising, single point]
O=C(N/N=C/c1cccc2ccccc12)c1n[nH]c2c1CCCC2	143	4.11 µM [rising, single point]	14.6 µM [rising, partial curve]
Cc1cc2ccccn2c1C(=O)c1ccc(NN)c([N+](=O)[O-])c1	-11.2	1.3 µM [rising, full curve]	0.82 µM [rising, full curve, poor fit]
CC(=O)Nc1ccc(S(=O)(=O)Nc2cc(C)c(-n3nc4ccccc4n3)cc2O)cc1	-19.8		
NC1=NN(c2cccc(C(=O)O)c2)C(=O)C1	-33.5		0.00651 µM [falling, full curve, poor fit]
CSCC[C@H](NC(=O)Nc1ccccc1C)C(=O)O	26.2	20.6 µM [rising, single point]	
c1ccc(-c2nnc3n2N=C(c2ccc4c(c2)OCO4)CS3)nc1	-89.2	29.1 µM [falling, single point]	23.1 µM [falling, single point]
Cc1c(Cl)ccc(S(=O)(=O)NCCCn2ccnc2)c1Cl	-16.3		
CCOC(=O)C1=NN(c2ccc(Cl)cc2)C(=O)C1	12.6		
COc1cccc(C(C(=O)NC2CCCC2)N(C(=O)c2ccco2)c2ccc(C(C)=O)cc2)c1OC (configuration not stated)	-15.8		

Taken from above:
cell number change [%], CCCN(CCC)CC(O)Cn1cc(/C=C/C(=O)c2cccs2)c2ccccc21 (configuration not stated) is entered as -17.7
cell number change [%], C/C(=N\N1CCN(C)CC1)c1ccc(OC(F)F)cc1 is entered as -38.1
cell number change [%], O=C(N/N=C/c1cccc2ccccc12)c1n[nH]c2c1CCCC2 is entered as 143
cell number change [%], Cc1[nH][nH]c(=O)c1C(c1ccc(-c2ccc(Cl)cc2)o1)c1c(C)[nH][nH]c1=O is entered as 9.88
